The supplement of paper PMC10849652
The list shows a part of the results.

By UniProt entry, the sequences of proteins in these tests, tags left out. Where a name states a change or a piece, a line headed by the entry shows the natural chain unless it says otherwise.
UniProt Q3MIT2: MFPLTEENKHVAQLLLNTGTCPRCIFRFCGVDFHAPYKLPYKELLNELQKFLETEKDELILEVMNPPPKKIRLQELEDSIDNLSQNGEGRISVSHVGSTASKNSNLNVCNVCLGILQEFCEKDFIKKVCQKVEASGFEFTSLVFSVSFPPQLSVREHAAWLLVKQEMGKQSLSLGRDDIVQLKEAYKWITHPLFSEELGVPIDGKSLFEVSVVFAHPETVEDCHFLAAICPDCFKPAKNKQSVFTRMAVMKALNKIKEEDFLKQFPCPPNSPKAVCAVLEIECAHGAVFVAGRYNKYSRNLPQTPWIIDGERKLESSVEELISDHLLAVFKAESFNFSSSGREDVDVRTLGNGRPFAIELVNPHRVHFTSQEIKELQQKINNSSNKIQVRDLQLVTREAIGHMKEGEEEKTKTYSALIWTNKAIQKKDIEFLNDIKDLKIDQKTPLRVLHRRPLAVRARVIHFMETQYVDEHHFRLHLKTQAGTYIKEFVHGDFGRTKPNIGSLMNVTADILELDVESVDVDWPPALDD
UniProt P62191: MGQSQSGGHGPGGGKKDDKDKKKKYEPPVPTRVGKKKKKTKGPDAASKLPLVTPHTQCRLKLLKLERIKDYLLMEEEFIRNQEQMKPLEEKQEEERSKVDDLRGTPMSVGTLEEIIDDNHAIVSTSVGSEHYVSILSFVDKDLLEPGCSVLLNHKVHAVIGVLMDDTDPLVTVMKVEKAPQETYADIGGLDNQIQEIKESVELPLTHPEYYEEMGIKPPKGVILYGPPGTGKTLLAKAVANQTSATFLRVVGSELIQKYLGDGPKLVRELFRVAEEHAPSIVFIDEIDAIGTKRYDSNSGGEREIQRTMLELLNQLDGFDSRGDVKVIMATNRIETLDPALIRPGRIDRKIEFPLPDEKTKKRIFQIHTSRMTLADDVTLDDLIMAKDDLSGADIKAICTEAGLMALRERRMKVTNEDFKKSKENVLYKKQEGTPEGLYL
UniProt Q96BW5: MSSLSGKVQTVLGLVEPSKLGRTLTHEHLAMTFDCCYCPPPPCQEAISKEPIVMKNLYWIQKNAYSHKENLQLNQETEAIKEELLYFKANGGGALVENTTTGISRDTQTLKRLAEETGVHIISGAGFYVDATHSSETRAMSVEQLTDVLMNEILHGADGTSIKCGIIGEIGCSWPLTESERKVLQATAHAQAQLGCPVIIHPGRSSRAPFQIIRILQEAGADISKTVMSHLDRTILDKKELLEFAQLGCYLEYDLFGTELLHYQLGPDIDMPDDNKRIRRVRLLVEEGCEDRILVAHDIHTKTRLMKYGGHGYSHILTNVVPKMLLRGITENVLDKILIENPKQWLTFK
UniProt Q9H974: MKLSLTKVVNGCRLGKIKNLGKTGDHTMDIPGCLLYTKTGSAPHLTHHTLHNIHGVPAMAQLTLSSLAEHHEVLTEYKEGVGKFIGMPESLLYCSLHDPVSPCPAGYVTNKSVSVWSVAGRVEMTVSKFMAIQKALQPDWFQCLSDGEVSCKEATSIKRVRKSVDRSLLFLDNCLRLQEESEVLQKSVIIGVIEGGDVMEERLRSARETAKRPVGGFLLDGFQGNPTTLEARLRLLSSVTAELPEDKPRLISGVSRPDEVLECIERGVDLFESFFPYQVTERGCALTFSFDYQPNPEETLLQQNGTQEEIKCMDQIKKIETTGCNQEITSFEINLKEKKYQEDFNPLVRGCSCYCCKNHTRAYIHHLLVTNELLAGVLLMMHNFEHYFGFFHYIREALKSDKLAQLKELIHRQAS
UniProt Q9BVG9: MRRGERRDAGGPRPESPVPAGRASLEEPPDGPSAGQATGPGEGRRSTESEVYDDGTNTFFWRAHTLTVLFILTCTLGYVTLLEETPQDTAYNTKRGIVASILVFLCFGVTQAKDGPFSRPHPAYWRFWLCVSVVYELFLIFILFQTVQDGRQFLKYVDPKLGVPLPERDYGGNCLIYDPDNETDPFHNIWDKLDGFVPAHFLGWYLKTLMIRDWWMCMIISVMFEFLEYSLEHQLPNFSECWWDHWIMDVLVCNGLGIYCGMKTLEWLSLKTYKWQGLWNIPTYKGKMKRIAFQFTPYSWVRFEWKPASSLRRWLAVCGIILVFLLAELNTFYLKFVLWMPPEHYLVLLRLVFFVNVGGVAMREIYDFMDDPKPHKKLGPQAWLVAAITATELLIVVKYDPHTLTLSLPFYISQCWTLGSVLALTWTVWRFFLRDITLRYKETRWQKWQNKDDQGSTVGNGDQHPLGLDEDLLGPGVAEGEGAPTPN
UniProt Q7Z6K3: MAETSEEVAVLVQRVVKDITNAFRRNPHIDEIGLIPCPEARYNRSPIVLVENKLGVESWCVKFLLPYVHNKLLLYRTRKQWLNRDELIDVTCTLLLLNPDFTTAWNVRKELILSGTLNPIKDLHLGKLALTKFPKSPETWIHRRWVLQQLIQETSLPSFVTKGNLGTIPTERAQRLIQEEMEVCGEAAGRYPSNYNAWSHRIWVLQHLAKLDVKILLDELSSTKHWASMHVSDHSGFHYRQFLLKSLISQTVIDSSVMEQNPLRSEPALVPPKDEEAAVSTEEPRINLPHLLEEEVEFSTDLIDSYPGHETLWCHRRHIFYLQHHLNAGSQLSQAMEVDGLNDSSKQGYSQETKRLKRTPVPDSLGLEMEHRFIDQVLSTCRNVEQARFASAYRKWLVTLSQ
UniProt Q96PU8: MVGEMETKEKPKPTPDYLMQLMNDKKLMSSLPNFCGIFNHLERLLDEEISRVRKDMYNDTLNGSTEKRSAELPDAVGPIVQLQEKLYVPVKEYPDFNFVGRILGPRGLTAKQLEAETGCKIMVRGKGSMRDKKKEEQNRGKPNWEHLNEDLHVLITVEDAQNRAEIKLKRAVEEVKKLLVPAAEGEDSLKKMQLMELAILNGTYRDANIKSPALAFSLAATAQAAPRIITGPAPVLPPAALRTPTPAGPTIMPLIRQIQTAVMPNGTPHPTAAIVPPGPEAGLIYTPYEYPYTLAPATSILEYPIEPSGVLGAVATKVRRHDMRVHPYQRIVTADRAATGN
UniProt P25786: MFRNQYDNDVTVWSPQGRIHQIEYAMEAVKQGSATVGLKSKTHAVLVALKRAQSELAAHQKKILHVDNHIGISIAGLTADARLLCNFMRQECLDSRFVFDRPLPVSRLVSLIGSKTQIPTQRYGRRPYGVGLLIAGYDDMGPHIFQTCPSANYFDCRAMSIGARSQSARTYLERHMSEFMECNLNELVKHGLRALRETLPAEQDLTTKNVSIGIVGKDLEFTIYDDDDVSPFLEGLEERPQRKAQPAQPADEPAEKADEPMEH
UniProt Q14289, whole entry, looked up: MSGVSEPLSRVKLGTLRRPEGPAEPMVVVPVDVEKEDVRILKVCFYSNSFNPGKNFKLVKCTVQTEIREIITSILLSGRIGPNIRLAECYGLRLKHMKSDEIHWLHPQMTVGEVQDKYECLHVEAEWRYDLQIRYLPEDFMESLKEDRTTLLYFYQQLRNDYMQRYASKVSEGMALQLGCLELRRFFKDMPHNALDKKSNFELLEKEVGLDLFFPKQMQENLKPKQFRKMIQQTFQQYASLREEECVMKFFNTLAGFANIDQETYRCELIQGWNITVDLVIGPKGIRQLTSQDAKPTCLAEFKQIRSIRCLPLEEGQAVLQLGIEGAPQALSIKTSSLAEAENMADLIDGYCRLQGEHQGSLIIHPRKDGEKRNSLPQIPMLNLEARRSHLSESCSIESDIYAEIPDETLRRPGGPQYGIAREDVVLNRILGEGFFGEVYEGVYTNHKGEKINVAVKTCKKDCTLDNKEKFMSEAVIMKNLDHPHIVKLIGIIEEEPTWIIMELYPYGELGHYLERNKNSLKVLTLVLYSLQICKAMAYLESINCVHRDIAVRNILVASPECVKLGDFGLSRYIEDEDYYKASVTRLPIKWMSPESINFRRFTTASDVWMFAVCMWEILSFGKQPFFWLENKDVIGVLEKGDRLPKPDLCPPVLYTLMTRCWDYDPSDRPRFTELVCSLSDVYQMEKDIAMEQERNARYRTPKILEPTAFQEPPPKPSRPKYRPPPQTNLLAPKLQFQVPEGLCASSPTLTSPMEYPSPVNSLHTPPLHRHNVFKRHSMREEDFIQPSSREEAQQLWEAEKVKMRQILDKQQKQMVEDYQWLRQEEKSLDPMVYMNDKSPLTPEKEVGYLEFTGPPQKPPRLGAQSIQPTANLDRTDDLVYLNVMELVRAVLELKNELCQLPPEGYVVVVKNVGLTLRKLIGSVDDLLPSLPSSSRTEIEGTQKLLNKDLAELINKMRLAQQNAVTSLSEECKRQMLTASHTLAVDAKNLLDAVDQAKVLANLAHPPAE
UniProt Q8TBF2: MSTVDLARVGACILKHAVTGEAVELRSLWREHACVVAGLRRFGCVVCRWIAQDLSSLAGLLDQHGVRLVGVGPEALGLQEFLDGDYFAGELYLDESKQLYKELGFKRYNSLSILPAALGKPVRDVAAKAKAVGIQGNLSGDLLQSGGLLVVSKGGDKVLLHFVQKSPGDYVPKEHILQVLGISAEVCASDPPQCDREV
UniProt P25787: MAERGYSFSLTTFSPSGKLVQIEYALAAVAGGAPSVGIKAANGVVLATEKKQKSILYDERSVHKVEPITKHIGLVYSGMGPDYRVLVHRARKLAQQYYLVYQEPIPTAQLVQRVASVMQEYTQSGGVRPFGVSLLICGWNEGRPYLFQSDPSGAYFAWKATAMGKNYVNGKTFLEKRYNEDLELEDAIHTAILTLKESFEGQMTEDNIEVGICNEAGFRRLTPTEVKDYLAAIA
UniProt Q9NRG1: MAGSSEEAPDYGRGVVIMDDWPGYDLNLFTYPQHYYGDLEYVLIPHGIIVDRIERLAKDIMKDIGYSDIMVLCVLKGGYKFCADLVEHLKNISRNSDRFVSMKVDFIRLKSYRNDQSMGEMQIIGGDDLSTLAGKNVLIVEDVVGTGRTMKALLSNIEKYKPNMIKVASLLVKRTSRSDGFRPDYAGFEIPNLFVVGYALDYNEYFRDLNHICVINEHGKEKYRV
UniProt O75475: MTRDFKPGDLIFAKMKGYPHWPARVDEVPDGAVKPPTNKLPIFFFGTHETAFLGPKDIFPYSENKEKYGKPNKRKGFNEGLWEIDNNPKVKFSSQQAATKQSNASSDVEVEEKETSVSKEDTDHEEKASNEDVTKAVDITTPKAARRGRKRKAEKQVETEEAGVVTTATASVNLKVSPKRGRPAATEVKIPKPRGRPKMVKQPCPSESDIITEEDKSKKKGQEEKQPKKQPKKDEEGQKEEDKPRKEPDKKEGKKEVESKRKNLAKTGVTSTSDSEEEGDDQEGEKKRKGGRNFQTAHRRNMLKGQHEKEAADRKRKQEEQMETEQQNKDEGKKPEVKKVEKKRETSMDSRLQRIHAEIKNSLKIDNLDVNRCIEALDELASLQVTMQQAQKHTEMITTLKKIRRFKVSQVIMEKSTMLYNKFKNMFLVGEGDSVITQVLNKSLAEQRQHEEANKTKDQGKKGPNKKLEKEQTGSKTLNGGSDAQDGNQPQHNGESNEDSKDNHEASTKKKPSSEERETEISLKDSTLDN
UniProt Q7Z7A4: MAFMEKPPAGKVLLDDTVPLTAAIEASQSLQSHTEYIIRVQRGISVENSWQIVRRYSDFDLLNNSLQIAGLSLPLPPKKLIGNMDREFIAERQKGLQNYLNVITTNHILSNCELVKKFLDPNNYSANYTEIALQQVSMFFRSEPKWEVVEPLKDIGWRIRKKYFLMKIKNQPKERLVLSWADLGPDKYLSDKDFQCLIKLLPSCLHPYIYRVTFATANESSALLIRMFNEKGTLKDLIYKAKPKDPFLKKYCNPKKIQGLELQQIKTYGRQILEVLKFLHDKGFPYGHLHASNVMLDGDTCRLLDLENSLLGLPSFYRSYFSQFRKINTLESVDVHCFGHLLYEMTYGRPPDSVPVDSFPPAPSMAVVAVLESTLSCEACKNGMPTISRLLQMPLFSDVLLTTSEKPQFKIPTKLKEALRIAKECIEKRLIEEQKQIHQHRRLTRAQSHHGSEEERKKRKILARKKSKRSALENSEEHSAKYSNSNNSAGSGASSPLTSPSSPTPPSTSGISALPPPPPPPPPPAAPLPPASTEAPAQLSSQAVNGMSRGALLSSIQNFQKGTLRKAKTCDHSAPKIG
UniProt P07602: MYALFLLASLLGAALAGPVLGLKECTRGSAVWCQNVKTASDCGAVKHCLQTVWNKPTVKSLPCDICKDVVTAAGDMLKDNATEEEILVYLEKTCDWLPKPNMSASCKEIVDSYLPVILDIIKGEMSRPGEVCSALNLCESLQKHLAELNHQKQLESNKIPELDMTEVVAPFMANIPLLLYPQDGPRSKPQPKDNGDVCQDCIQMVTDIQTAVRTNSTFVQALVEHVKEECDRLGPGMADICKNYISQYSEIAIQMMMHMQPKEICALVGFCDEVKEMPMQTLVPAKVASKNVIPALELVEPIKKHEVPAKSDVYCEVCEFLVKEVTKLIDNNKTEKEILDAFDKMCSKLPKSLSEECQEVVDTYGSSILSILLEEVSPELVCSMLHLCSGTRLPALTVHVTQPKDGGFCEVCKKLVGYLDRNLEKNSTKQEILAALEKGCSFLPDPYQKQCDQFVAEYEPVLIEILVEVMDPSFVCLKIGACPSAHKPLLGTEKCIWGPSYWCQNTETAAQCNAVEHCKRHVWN

compound: Cn1cc(-c2ccc3nnc(C(F)(F)c4ccc5ncccc5c4)n3n2)cn1; assay: log2 fold change, soluble protein after heating vs DMSO (PISA); higher = thermal stabilisation; K562 cells, 10 uM, 30 min; active = over 0.2 and 3.5 SD of the protein, either way, in both replicates (recomputed)
Summary of the method: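 K562 cells at 2×10^6 cells/mL were given 10 μM compound for 30 min. Aliquots then went through 3 min of heating across 48°C-58°C, were pooled, and were extracted in PBS with 0.5% NP-40 at 4°C, and the supernatant after 21,000xg for 90 min was quantified by TMTpro 16plex LC-MS/MS with channel sums equalised. Thermal stability relative to control samples, from duplicates, is given as log2 fold change.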

Target	log2 fold change
PUS10 (UniProt Q3MIT2)	inactive: -0.026
PTPN12 (UniProt Q05209)	inactive: -0.086
PSMC1 (UniProt P62191)	inactive: 0
PTPMT1 (UniProt Q8WUK0)	inactive: -0.132
PTMS (UniProt P20962)	inactive: -0.061
PUM2 (UniProt Q8TB72)	inactive: 0.035
PWP2 (UniProt Q15269)	inactive: -0.087
PTER (UniProt Q96BW5)	inactive: 0.074
PSMD13 (UniProt Q9UNM6)	inactive: -0.008
QTRT2 isoform 4 (UniProt Q9H974)	inactive: 0.026
PSMC5 (UniProt P62195)	inactive: -0.006
PTRHD1 (UniProt Q6GMV3)	active: 0.332
PTDSS2 (UniProt Q9BVG9)	inactive: 0.003
PTAR1 (UniProt Q7Z6K3)	inactive: 0.09
QKI (UniProt Q96PU8)	inactive: -0.036
PSTPIP2 (UniProt Q9H939)	inactive: -0.044
PSMA1 isoform 2 (UniProt P25786)	inactive: -0.033

Single values from the results shown:
Value for PTAR1 (UniProt Q7Z6K3) under log2 fold change: inactive: 0.09
Value for PWP2 (UniProt Q15269) under log2 fold change: inactive: -0.087

Remaining list, next part.

Target	log2 fold change
PTK2B (UniProt Q14289)	inactive: -0.014
PWP1 (UniProt Q13610)	inactive: -0.154
PRXL2B isoform 3 (UniProt Q8TBF2)	inactive: 0.011
PTDSS1 (UniProt P48651)	inactive: 0.042
PSMA2 (UniProt P25787)	inactive: -0.026
PSMD6 (UniProt Q15008)	inactive: -0.035
PRTFDC1 (UniProt Q9NRG1)	inactive: 0.002
PSMC2 (UniProt P35998)	inactive: -0.013
PYCR3 (UniProt Q53H96)	inactive: -0.033
PSMA5 (UniProt P28066)	inactive: -0.003
PSAT1 (UniProt Q9Y617)	inactive: 0.007
PSIP1 (UniProt O75475)	inactive: -0.085
PSMD9 (UniProt O00233)	inactive: 0.034
PXK (UniProt Q7Z7A4)	inactive: -0.106
PSAP isoform 3 (UniProt P07602)	inactive: 0.035
PSMB6 (UniProt P28072)	inactive: -0.027
PYGL (UniProt P06737)	inactive: -0.005
